In this assay the target is bovine serum albumin (bovine) (UniProt P02769). Briefly: condition: 0.125, 0.25, 0.5 and 1 µg BSA dotted; Ofd2 5 µg/ml; far-Western, overlay or dot blot; dot blot: 0.125, 0.25, 0.5 and 1 µg of histones or BSA dotted onto PVDF, blocked in 5% dry milk in PBS, probed with Ofd2 (5 µg/ml in PBS/0.005% Tween 20) at 4°C over night; detected with anti-Ofd2 antibody and chemiluminescence; both purified.

The chains behind the UniProt entries cited, without tags or fusion partners. Residues count along the entry.
UniProt P02769, residues 25-607: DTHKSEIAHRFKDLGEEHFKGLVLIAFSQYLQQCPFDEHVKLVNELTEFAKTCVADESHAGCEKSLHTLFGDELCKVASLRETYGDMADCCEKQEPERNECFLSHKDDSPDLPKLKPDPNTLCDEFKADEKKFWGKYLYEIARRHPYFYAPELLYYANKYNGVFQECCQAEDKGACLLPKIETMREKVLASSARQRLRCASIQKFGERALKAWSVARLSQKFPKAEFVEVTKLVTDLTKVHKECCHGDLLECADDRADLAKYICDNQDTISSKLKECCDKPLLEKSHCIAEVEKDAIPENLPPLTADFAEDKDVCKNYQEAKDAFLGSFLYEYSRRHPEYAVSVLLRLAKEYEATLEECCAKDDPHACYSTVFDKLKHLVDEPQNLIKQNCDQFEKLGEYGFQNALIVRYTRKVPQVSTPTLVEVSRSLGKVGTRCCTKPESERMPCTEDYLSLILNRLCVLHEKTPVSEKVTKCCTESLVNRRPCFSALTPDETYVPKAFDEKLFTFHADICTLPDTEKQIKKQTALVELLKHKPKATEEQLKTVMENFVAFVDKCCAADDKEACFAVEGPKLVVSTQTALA

These are yes or no findings as the source states them, for the method shown.

As to “Schizosaccharomyces pombe Ofd2 (2OG/Fe(II) dioxygenase 2) (from UniProt Q9UT12) (enzyme)”, the binding result is on record as “no binding”.

These data come from paper PMC3175000.
